In patent US6555328:
Results are given in words; binding and its absence hold for the method and conditions named. For part of these data: In cells and extracts the contact can be indirect. Some results given as binding are weak or reduced against the parent protein; the word gives no strength.

By UniProt entry, the sequences of proteins in these tests, tags left out. Where a name states a change or a piece, a line headed by the entry shows the natural chain unless it says otherwise. Chains listed by the source or under a name are the forms on record and can include a tag or linker. Residues count along the entry.
UniProt O15534, residues 1-1289: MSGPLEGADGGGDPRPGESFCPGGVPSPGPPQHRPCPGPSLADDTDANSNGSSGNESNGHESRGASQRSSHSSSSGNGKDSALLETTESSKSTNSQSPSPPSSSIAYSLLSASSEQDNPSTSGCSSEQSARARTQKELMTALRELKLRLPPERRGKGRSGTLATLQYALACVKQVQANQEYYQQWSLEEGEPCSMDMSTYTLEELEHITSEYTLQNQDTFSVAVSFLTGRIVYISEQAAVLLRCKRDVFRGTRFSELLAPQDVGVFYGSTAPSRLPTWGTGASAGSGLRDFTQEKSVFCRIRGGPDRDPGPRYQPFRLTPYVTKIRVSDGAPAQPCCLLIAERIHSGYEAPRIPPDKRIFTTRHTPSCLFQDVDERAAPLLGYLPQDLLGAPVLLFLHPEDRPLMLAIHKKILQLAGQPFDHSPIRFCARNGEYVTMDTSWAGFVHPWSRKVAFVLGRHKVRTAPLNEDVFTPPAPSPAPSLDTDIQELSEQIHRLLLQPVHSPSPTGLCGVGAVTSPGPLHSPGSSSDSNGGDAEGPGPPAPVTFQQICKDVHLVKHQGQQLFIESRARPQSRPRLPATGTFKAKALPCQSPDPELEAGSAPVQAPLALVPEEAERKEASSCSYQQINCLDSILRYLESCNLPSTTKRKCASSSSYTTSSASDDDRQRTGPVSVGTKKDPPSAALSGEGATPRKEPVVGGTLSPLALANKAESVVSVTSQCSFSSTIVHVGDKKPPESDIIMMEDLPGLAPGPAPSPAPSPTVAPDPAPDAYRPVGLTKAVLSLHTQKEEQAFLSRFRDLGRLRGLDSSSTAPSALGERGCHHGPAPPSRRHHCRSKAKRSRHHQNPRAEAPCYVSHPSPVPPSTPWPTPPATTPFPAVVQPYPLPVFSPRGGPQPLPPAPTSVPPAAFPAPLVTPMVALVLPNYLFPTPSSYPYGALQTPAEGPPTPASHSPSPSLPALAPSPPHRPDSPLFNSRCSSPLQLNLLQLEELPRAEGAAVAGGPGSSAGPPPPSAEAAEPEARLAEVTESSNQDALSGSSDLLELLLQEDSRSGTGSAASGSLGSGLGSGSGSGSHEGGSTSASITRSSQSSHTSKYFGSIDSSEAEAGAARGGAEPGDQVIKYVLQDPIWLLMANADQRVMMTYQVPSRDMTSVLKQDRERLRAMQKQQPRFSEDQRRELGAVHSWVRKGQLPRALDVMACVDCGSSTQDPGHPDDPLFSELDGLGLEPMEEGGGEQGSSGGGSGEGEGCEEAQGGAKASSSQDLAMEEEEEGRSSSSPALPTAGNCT
UniProt P49674: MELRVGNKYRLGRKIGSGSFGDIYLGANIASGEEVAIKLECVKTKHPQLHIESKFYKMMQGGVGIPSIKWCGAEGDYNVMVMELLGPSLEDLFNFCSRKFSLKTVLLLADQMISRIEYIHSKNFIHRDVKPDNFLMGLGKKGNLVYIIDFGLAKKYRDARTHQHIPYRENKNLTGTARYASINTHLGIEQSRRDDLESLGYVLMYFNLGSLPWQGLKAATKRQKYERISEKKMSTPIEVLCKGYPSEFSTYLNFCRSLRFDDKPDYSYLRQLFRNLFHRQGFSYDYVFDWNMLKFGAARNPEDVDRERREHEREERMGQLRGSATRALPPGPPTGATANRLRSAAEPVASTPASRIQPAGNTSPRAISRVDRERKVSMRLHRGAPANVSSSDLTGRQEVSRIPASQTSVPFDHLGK
HA-tagged hCKIε (human casein kinase I ε, wild type, expressed from pCEP4-CKIε in 293T cells) (P49674, form named): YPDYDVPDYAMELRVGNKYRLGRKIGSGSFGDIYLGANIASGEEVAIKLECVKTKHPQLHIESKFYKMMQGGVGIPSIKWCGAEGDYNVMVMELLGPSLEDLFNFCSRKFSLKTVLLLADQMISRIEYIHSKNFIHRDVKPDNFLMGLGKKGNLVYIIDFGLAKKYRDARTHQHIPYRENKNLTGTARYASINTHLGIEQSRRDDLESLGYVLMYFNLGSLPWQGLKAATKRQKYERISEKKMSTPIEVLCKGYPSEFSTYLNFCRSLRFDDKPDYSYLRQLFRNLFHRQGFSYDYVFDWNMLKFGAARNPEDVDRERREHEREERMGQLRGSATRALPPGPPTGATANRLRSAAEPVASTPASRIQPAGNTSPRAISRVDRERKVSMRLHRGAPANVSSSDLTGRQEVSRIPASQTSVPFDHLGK

Assays:
[1] = biological target: Flag-tagged hPER1 (human Period 1, full-length open reading frame, amino acids 1 to 1289) (human) (UniProt O15534); assay: co-immunoprecipitation from co-transfected 293T cells (anti-Flag IP / anti-HA blot and anti-HA IP / anti-Flag blot)
[2] = biological target: Flag-tagged hPER1 (human Period 1, full-length open reading frame, amino acids 1 to 1289) (human) (UniProt O15534); assay: co-immunoprecipitation from co-transfected 293T cells
[3] = biological target: Flag-tagged hPER1 (human Period 1, full-length open reading frame, amino acids 1 to 1289) (human) (UniProt O15534); assay: co-immunoprecipitation from 293T cells
[4] = biological target: Flag-tagged hPER1 (human Period 1, full-length open reading frame, amino acids 1 to 1289) (human) (UniProt O15534); assay: HA immunoprecipitation and Western blot, co-transfected 293T cells
[5] = biological target: Flag-tagged hPER1 (human Period 1, full-length open reading frame, amino acids 1 to 1289) (human) (UniProt O15534); assay: co-immunoprecipitation from 293T cells transfected with hPER1 only (anti-Flag IP / anti-hCKIε blot and anti-hCKIε IP / anti-Flag blot)

Measured: binding

HA-tagged hCKIε (human casein kinase I ε, wild type, expressed from pCEP4-CKIε in 293T cells) (from UniProt P49674 1-416) (enzyme)
not listed: [5]
binds: all other assays above

endogenous hCKIε of 293T cells (from UniProt P49674 1-416) (enzyme)
binds: [3] | [5]
